Results are given in words; binding and its absence hold for the method and conditions named. In cells and extracts the contact can be indirect. A result given as binding can be weak or reduced; the word gives no strength. Blank lines part the entries; values can stand above or below the molecule they belong to.
Columns and labels:
[1] = biological target: T1, rat MCT4 (rMCT4), lactate-H+ cotransporter MCT4 (rat) (UniProt O35910); test: co-IP; MDA-MB-231 cells transfected with CD147 and MCT4 plasmids; NP40 lysis buffer (50 mM Tris-HCl pH 7.4, 140 mM NaCl, 1% IGEPAL); lysate incubated overnight at 4°C with anti-CD147 or anti-MCT4 antibody, Dynabeads Protein G, five washes in lysis buffer; western blot
T1 sequence: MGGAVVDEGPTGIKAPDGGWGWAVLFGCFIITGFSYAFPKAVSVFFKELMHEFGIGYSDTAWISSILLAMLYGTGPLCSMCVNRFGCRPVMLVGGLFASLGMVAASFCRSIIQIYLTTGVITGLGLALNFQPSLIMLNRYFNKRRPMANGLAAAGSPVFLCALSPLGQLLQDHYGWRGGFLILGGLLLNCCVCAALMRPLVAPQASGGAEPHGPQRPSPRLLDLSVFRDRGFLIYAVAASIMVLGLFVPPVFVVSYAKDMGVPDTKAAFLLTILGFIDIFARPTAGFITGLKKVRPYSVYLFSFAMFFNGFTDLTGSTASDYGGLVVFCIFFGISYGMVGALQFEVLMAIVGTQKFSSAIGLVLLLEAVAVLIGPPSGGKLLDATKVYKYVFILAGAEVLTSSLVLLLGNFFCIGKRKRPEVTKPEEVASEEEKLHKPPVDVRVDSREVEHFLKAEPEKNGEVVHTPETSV

By UniProt entry, the sequences of proteins in these tests, tags left out. Where a name states a change or a piece, a line headed by the entry shows the natural chain unless it says otherwise.
UniProt P35613: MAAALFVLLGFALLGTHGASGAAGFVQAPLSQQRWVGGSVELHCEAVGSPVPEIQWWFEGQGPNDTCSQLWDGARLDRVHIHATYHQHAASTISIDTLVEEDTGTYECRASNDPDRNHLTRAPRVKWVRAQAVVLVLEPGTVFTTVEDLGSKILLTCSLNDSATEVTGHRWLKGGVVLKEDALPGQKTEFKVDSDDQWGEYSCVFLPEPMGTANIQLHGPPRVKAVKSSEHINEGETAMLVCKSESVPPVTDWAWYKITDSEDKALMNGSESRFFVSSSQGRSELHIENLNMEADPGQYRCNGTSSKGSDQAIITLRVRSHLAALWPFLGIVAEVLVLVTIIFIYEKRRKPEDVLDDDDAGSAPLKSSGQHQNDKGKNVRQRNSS

CD147 (basigin) = CD147 (basigin) (UniProt P35613); test: as above

binding [1]: binds
Molecule: CD147 (basigin) (from UniProt P35613-2)

binding (CD147 (basigin)): binds
B1: rat MCT4 (rMCT4), lactate-H+ cotransporter MCT4 (protein, UniProt O35910 1-471)
chain: T1 sequence
